In the supplement of paper PMC11732987, “Enantioselective OTUD7B fragment discovery through chemoproteomics screening and high-throughput optimisation” (Communications Chemistry, 2025):
The other results are listed elsewhere or left out. The data scatter; read single values as rough.

Chains of the proteins cited; added tags and fusions are not shown. Lines headed by an entry give the natural chain unless they say otherwise; changes in a name come on top. Residues count along the entry.
UniProt O14802: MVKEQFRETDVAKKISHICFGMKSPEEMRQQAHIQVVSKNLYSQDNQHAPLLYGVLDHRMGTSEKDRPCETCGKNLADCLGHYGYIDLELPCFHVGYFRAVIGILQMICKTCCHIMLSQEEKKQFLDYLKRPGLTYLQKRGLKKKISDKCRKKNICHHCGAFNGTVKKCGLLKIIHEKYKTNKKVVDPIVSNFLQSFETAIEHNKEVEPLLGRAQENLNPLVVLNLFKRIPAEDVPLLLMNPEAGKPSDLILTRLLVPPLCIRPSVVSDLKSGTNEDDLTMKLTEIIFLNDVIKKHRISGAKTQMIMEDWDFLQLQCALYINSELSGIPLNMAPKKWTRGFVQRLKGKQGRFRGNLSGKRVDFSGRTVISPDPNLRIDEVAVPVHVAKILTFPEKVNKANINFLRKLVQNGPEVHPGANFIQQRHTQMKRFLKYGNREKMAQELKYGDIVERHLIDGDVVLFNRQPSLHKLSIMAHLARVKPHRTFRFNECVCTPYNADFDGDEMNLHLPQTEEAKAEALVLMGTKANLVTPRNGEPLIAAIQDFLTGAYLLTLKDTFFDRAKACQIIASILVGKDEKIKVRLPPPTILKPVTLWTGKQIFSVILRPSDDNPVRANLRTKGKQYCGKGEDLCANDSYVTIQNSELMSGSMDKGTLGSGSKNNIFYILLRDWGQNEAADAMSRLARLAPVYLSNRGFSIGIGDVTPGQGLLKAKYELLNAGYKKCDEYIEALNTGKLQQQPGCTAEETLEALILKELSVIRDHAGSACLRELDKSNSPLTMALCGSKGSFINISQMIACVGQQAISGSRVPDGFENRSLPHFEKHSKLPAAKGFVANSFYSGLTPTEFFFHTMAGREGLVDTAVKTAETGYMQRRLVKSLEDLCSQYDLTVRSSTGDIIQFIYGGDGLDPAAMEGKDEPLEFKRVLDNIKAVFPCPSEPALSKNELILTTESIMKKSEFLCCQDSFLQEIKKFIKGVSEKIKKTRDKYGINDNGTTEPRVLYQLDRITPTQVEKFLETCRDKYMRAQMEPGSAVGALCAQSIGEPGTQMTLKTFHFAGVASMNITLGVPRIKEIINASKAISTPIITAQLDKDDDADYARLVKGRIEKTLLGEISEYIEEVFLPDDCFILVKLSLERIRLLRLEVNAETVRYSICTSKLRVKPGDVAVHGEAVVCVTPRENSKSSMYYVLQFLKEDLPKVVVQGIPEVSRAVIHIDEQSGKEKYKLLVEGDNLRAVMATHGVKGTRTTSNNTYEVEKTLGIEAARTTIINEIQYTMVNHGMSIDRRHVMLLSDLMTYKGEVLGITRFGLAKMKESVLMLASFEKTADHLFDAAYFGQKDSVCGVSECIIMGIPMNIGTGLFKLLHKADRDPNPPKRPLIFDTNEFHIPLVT
UniProt Q96HA1, whole entry, looked up: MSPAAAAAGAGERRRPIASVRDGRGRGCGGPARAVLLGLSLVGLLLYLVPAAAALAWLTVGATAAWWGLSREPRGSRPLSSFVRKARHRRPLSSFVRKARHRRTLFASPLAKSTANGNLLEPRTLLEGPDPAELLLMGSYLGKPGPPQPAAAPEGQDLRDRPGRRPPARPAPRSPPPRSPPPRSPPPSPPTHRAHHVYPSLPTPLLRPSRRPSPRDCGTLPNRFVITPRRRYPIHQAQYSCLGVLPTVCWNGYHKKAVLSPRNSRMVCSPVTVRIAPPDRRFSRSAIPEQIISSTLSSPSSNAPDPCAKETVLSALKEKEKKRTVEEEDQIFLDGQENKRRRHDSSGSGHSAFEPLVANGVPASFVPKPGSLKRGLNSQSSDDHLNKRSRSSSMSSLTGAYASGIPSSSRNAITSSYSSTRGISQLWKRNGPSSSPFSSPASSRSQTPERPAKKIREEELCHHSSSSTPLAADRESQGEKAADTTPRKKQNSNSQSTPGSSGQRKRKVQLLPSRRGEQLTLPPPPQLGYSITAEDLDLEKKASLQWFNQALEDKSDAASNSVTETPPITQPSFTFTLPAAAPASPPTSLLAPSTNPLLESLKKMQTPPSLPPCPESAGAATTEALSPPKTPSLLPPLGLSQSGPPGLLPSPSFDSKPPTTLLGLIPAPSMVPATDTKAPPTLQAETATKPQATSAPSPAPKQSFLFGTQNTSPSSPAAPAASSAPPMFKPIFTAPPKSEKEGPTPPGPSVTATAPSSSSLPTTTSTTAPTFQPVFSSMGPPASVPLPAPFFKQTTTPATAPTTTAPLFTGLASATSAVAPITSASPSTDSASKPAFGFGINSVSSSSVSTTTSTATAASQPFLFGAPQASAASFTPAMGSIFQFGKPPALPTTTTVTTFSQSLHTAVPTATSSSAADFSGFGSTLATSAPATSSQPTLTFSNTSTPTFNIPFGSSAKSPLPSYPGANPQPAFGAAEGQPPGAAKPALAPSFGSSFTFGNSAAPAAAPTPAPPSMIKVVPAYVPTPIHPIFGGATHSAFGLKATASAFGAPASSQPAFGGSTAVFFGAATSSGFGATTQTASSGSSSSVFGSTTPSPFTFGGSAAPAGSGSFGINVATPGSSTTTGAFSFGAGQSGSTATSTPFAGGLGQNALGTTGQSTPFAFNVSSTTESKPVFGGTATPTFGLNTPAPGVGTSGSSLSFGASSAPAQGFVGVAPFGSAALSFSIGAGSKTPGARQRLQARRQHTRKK
UniProt P78527, 1423-1445: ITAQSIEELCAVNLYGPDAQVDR
UniProt Q9UKY4: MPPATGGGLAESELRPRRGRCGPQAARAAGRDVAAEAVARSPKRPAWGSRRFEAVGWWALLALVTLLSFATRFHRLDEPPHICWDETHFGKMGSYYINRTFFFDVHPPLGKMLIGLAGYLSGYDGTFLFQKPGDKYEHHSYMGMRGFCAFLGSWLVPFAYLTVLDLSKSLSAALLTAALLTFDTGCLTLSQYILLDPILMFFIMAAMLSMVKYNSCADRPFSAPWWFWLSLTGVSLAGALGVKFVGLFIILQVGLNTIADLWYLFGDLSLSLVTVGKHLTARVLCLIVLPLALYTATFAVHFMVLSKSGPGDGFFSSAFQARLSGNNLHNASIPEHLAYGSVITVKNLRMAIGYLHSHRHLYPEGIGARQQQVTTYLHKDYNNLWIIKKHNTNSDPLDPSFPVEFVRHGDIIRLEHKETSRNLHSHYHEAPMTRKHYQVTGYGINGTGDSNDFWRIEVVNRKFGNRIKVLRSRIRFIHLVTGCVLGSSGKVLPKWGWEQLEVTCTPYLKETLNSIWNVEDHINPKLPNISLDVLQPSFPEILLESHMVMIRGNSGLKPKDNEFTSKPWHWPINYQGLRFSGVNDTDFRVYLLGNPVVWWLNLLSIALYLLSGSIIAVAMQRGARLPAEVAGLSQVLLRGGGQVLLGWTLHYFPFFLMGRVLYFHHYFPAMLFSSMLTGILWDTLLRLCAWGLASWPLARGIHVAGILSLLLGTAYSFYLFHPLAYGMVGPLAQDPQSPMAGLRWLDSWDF
UniProt Q9Y3C6: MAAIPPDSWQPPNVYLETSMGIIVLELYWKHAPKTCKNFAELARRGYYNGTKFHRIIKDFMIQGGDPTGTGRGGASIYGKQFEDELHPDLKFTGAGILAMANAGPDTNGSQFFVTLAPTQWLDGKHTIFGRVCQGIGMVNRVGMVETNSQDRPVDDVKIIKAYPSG
UniProt O95685: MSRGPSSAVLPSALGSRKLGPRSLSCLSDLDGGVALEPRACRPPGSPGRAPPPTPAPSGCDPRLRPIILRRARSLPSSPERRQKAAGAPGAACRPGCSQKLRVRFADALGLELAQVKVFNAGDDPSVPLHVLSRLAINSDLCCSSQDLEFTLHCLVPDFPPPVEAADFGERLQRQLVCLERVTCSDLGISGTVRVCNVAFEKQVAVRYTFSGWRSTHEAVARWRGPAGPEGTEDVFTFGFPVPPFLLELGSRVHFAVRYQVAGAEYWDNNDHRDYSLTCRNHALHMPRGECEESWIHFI
UniProt P30153, whole entry, looked up: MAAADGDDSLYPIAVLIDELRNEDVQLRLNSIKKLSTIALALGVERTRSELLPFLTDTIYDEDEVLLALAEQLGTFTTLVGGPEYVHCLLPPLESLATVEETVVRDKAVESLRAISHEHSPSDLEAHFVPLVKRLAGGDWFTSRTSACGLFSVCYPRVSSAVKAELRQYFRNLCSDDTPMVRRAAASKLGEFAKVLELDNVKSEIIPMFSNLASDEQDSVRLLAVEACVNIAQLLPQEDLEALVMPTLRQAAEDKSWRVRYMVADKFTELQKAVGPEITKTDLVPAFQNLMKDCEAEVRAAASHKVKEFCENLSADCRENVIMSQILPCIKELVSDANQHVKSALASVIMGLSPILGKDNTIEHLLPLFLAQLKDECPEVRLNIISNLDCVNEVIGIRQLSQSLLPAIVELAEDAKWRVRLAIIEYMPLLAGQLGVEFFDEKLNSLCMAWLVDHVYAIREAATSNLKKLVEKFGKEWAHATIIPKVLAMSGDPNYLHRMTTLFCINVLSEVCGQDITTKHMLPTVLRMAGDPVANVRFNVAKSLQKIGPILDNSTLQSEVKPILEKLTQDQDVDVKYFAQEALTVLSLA

Legend:
[1] = compound: ClCC(=O)N[C@@H]1CCCc2ccccc12; experiment: log2 mean competition ratio of IA-DTB cysteine labelling (DMSO/compound) (log2 ratio); higher = stronger cysteine engagement by compound; conditions: treatment time: 4 h, cell line lysate: HEK293T
Procedure: (§1)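 IA-DTB competitive cysteine chemoproteomics in HEK293T RIPA lysate. Lysates were treated with compound 29 or 30 at 50 or 200 µM for 4 h, then IA-DTB (500 µM, 1 h), trypsin-digested, NeutrAvidin-enriched and analysed by diaPASEF. Competition ratio = intensity DMSO / intensity compound (n=4 treated, n=64 DMSO); binding: mean log2 CR ≥ 1 and p ≤ 0.05 plus QC filters. Target is the cysteine site.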

[2] = compound: ClCC(=O)N[C@H]1CCCc2ccccc12; experiment: as above; conditions: treatment time: 4 h, cell line lysate: HEK293T
Procedure: as §1

POLR3A C724 (UniProt O14802)
log2 mean competition ratio ([1]; 50 µM): 0.00708
log2 mean competition ratio ([1]; 200 µM): 0.437
log2 mean competition ratio ([2]; 50 µM): 0.143
log2 mean competition ratio ([2]; 200 µM): 0.143

POM121 C217 (UniProt Q96HA1)
log2 mean competition ratio ([1]; 50 µM): 0.0121
log2 mean competition ratio ([1]; 200 µM): 0.266
log2 mean competition ratio ([2]; 50 µM): 0.176
log2 mean competition ratio ([2]; 200 µM): 0.351

PRKDC C1432 (UniProt P78527)
log2 mean competition ratio ([1]; 50 µM): -0.227
log2 mean competition ratio ([1]; 200 µM): 0.06
log2 mean competition ratio ([2]; 50 µM): -0.164
log2 mean competition ratio ([2]; 200 µM): -0.0838

POMT2 C21 (UniProt Q9UKY4)
log2 mean competition ratio ([1]; 50 µM): 0.104
log2 mean competition ratio ([1]; 200 µM): 0.326
log2 mean competition ratio ([2]; 50 µM): 0.0256
log2 mean competition ratio ([2]; 200 µM): 0.0553

PPIL1 C133 (UniProt Q9Y3C6)
log2 mean competition ratio ([1]; 50 µM): 0.453
log2 mean competition ratio ([1]; 200 µM): -0.081
log2 mean competition ratio ([2]; 50 µM): 0.202
log2 mean competition ratio ([2]; 200 µM): -0.00257

PPP1R3D C26 (UniProt O95685)
log2 mean competition ratio ([1]; 50 µM): 0.114
log2 mean competition ratio ([1]; 200 µM): 0.16
log2 mean competition ratio ([2]; 50 µM): 0.0956
log2 mean competition ratio ([2]; 200 µM): -0.002

PPP2R1A C174 (UniProt P30153)
log2 mean competition ratio ([1]; 50 µM): -0.137
log2 mean competition ratio ([1]; 200 µM): -0.191
log2 mean competition ratio ([2]; 50 µM): -0.0524
log2 mean competition ratio ([2]; 200 µM): -0.125
